Laboratory results: US20130323813, “PEPTIDES FOR THE SPECIFIC BINDING OF RNA TARGETS” (THE UNIVERSITY OF WESTERN AUSTRALIA, published 2013)
Where a chain is given by its changes, count along the chain named. For part of these data: No signal at the amounts used counts as a negative. Where a protein sequence is shown, tags need not be part of it. For part of these data: At least one result comes from cells or an extract, where the contact may be indirect. For part of these data: The comparison behind a weaker result is the experiment's own reference, which may not be listed here.

Assays:
Assay in all cases: one hybrid
[1] = molecular target: T1, PUM1 PUF GR repeat 8 (Homo sapiens) (UniProt Q14671); conditions: yeast three-hybrid; protein in cells; protein details: Gal4 activation domain fusion
T1 sequence: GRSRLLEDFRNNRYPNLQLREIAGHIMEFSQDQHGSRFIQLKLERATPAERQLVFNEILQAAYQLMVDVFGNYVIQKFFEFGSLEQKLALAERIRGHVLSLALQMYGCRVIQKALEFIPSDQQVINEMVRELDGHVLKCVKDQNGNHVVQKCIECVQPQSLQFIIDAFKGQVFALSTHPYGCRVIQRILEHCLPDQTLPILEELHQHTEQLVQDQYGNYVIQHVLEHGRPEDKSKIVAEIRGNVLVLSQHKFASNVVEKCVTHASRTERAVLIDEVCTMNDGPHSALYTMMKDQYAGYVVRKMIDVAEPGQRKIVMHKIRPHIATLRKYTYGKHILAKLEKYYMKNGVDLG

[2] = molecular target: T2, PUM1 PUF GR repeat 7 (Homo sapiens) (UniProt Q14671); conditions: yeast three-hybrid; protein in cells; protein details: Gal4 activation domain fusion
T2 sequence: T1 sequence with S254G, E258R, G297N, R301Q

[3] = molecular target: T3, PUM1 PUF GR (repeat 6 Gly12/Arg16) (Homo sapiens) (UniProt Q14671); conditions: yeast three-hybrid; purified recombinant protein
T3 sequence: T1 sequence with N218G, Q222R, G297N, R301Q

[4] = molecular target: T4, PUM1 PUF TR (repeat 6 Thr12/Arg16) (Homo sapiens) (UniProt Q14671); conditions: yeast three-hybrid; protein in cells; protein details: Gal4 activation domain fusion
T4 sequence: T1 sequence with N218T, Q222R, G297N, R301Q

[5] = molecular target: T5, PUM1 PUF CR (repeat 6 Cys12/Arg16) (Homo sapiens) (UniProt Q14671); conditions: yeast three-hybrid; purified recombinant protein
T5 sequence: T1 sequence with N218C, Q222R, G297N, R301Q

[6] = molecular target: T6, PUM1 PUF GR repeat 2 (Homo sapiens) (UniProt Q14671); conditions: yeast three-hybrid; protein in cells; protein details: Gal4 activation domain fusion
T6 sequence: T1 sequence with N72G, Q76R, G297N, R301Q

CCGGCUAGCAAUUGUAUAUAUUAAUUUAAUAAAGCAUG [NRE]
binding result [1]: binds more weakly | binding result [2]: binds more weakly | binding result [3]: no binding | binding result [4]: no binding | binding result [5]: no binding | binding result [6]: binds more weakly
